PubChem BioAssay AID1259276, Sanger Institute | 2017

- Screen: 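Kinase knock-downs that reduce colorectal cancer cell viability alone or with anchor drugs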 (primary screen)
- Cells: human C2BBe1 colorectal cancer cells
- Reagent: siRNA pool against human genes
- Treatment: DMSO vehicle, or one anchor drug: BYL719 at 1 µM, cetuximab at 5 µg/ml, or trametinib at 10 nM; exposure length not stated
- Measured: 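Cell viability as a fraction of non-targeting control wells, mean of replicates, also as a control-based robust z-score, plus a synergy score for each anchor drug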
- Direction: viability robust z-score, siRNA alone and viability vs control, siRNA alone: higher = more viable cells after knock-down; synergy score with BYL719: higher = stronger combined killing with BYL719; synergy score with cetuximab: higher = stronger combined killing with cetuximab; synergy score with trametinib: higher = stronger combined killing with trametinib
- Hit rule: 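a siRNA pool tested without drug is essential if its viability robust z-score falls under -3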
- Meaning of the calls: active = essential (siRNA alone); inactive = no change (siRNA alone)
This is one part, drawn at random, of 794 reagents. 24 of all reagents (3%) count as active. 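Calls come only from the siRNA-alone arm; drug synergy scores do not affect them.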 A number with no mark means an inactive call. No viability above 1 is reported: the scale is capped. Not given: the amount of reagent, the time to read-out.

Target gene	viability robust z-score, siRNA alone	viability vs control, siRNA alone	synergy score with BYL719	synergy score with cetuximab	synergy score with trametinib
RPS6KA6	0.472	1	-0.129	0.0215	-0.0667
SIK3	0.472	1	-0.011	-0.0115	0.0653
LYN	0.472	1	-0.136	-0.0115	-0.0667
PLK2	0.472	1	-0.0499	0.0532	-0.0667
PIK3R4	0.472	1	0.284	0.218	0.168
RET	0.472	1	-0.129	0.179	-0.0667
CAMK2A	0.472	1	0.00552	0.215	-0.0667
MKNK1	0.472	1	-0.142	-0.0115	-0.0667
CDK10	0.472	1	-0.142	0.0686	-0.0667
MAP3K19	0.472	1	0.0567	-0.0115	0.0228
PI4KB	0.472	1	-0.136	-0.0115	0.0275
ANKK1	0.472	1	0.179	-0.0115	-0.0667
AURKA	-2.18	0.833	-0.197	-0.0647	-0.027
SLK	0.472	1	-0.0752	-0.0115	-0.0667
CTCF	0.472	1	-0.142	0.142	-0.0667
GALK2	0.472	1	-0.0789	-0.0115	-0.0667
